Patent US11576914B2, “Drug for treating or preventing disorder caused by TGF-β signaling, and application thereof” (THE DOSHISHA, priority 2017, dated 2023)
Some entries share one result that the patent states for a list of compounds.

Tested on: Fuchs' endothelial corneal dystrophy patient-derived immortalized corneal endothelial cells
Assay: Cell damage inhibitory effect on iFECD stimulated with TGF-β2 (phase contrast microscope)
Assay type: cell-based, human
Details: TGF-β2 stimulation
Procedure: The medium was removed from the culture dish in which Fuchs' endothelial corneal dystrophy patient-derived immortalized corneal endothelial cells (hereinafter, referred to as disease model cells) were being cultured, and the cells were supplemented with 1×PBS (−) that was preheated to 37° C., and were washed. This operation was repeated twice. The cells were supplemented with 1×PBS (−) again and incubated for 5 minutes at 37° C. (5% CO2). After the PBS (−) was removed, the cells were supplemented with 0.05% Trypsin-EDTA (nacalai tesque, 32778-34) and incubated for 5 minutes at 37° C. (5% CO2). The cells were then suspended in a medium, and collected by centrifugation at 1500 rpm for 3 minutes. DMEM (nacalai tesque, 08456-36)+10% FBS (Biowest, S1820-500)+1% P/S (nacalai tesque, 26252-94) was used as the medium. The disease model cells were seeded in a 6-well plate at a rate of 1.5×10^5 cells per well and cultured at 37° C. (5% CO2) for 48 hours. DMEM+10% FBS+1% P/S was used as the medium.
After 48 hours, the medium was removed, and AKP-001, SB203580 (Cayman, 13067), PH-797804 (Selleck Chemicals, S2726) and VX-702 (Selleck Chemicals, 56005) were added to DMEM+2% FBS+1% P/S so that the final concentration was 0.01, 0.03, 0.1, 0.3, 1, 3, 10 and 30 μM, followed by culturing as 24-hour pretreatment. […] After 24 hours, cell damage was evaluated by observation with a phase contrast microscope. […]

| SMILES | concentrations at which cytotoxicity inhibitory effects were confirmed |
| --- | --- |
| CNC(=O)c1ccc(C)c(-n2c(C)cc(OCc3ccc(F)cc3F)c(Br)c2=O)c1 [PH-797804] | ≥ 1000 nM |
| NC(=O)c1ccc(N(C(N)=O)c2c(F)cccc2F)nc1-c1ccc(F)cc1F [VX-702] | ≥ 1000 nM |
